Measurements reported in patent US20250346644A1.
Results are given in words; binding and its absence hold for the method and conditions named.

The chains behind the UniProt entries cited, without tags or fusion partners. Where a name states a change or a piece, a line headed by the entry shows the natural chain unless it says otherwise.
UniProt P60568: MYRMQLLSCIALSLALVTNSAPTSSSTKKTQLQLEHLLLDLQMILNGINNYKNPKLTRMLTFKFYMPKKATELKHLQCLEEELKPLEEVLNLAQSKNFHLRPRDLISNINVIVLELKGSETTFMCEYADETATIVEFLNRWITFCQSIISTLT

B1: S4B6 chimeric antibody (antibody, human IgG1, V domains shown)
VH: EVQLQESGAELVRPGTSVKLSCKVSGDTITAYYLHFVRQRPGQGLEWIGRIDPEDDSTKYAENFKNKATFTADASSNTAYLRLSSLTSEDTATYFCTTVTFYYSRELRWFAYWGQGTLVTVSS
VL: DIQVTQSPASLSASLEEIVTITCQASQDIGNYLSWYQQKLGKSPQLLIHSATSLADGVPSRFSGSRSGTQYSLKINRLQVEDTGIYYCLQHYSTPYTFGAGTKLELK
B2: hS4B6-H1K1 (antibody, V domains shown)
VH: QVQLQESGPGLVKPSETLSLTCTVSGDTITAYYLHWIRQPPGKGLEWIGRIDPEDDSTKYAENFKNRVTISVDTSKNQFSLKLSSVTAADTAVYYCTTVTFYYSRELRWFAYWGQGTTVTVSS
VL: DIVLTQSPGTLSLSPGERATLSCQASQDIGNYLSWYQQKPGQAPRLLIYSATSLADGIPDRFSGSRSGTDYTLTISRLEPEDFAVYYCLQHYSTPYTFGQGTKVEIK

Biological target: hIL2-his (human) (UniProt P60568)
Assay: ELISA (section 2.1.1): antibody (13.3 nM) captured on coated goat anti-human IgG, hIL2-his titrated (the x axis is the antigen concentration), HRP anti-6xHis

Binder | binding
B1 | no binding (tested: 2 µg/mL)
B2 | no binding (tested: 2 µg/mL)
